According to PubChem BioAssay AID493014 (National Center for Advancing Translational Sciences (NCATS), 2011):
This is one part of the list. Further columns of the screen follow, without active or inactive calls. The list favours compounds with an active or inconclusive main result. Potencies come from curve fits of mixed quality, noted in brackets.

Test: qHTS Assay to Find Inhibitors of Chronic Active B-Cell Receptor Signaling
Settings: ABC-DLBCL IkBa-CBG/CBR reporter, luminescence ratio (green luciferase fused to IkBa over red control in TMD8 lymphoma cells), 4 h
Method in brief: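 Cell line TMD8 (human ABC DLBCL), stably expressing tet-inducible CBG68-IkBa fusion and CBR; IMDM/0.5% FBS; cpd up to 46 uM; dox induction, 4 h, 37C/5% CO2; dual luminescence; green/red ratio; MG132 control.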

[1] = measured here: CBR red luminescence, cell number
[2] = measured here: IkBa-CBG green luminescence

In the case of `CCOc1ccc(OCC(=O)NCc2n[nH]c(=O)c3ccccc23)cc1`, the AC50 [1] is reported as 16.4 µM [falling, single point].

For `CCn1nc(C(=O)O)c(=O)c2cc3c(cc21)OCO3`, the AC50 [1] was 0.1 µM [falling, full curve, poor fit].

With `CC(C)C(=O)Nc1ccccc1Cc1ccccc1` the AC50 [1] was 22.4 µM [rising, single point].

With `CCC(C)NC(=O)c1cc2cc3ccc(OC)cc3nc2s1` (stereo not drawn) the AC50 [1] was 29.1 µM [falling, single point].

With `CN(C)c1nc(=S)nc(NCc2ccccc2)[nH]1` the AC50 [1] was 35.5 µM [rising, single point].

With `CC(C)c1ccc(CNc2ccc([N+](=O)[O-])cn2)cc1` the AC50 [1] was 35.5 µM [rising, single point].

With `COc1ccc(S(=O)(=O)Nc2ccc3c(c2)C(=O)N([C@H](C)CO)C[C@H](C)[C@@H](CN(C)C(=O)Nc2ccccc2)O3)cc1` the AC50 [1] was 0.82 µM [rising, partial curve, poor fit].

In the case of `COc1ccc(NC(=O)C/C(C)=N/NC(=O)c2cnccn2)cc1Cl`, the AC50 [1] is reported as 10 µM [falling, partial curve].

With `CCN(CC)c1ccc(-c2n[nH]c(=S)n2-c2ccccc2C)cc1` the AC50 [1] was 35.5 µM [falling, single point].

With `CC1Cc2ccccc2N1C(=O)COC(=O)C1=COCCO1` (stereo not drawn) the AC50 [1] was 6.31 µM [rising, single point].

In the case of `CCc1cccc(OCC(=O)Nc2ccc(S(=O)(=O)Nc3onc(C)c3C)cc2)c1`, the AC50 [1] is reported as 29.1 µM [falling, single point].

With `CC(C)c1ccc(/C=C/C(=O)N2CCCCCC2)cc1` the AC50 [1] was 13 µM [rising, partial curve].

For `Cc1nc2c(C)cccn2c(=O)c1NC(=O)c1cccs1`, the AC50 [1] was 2.06 µM [rising, partial curve, poor fit].

For `CNS(=O)(=O)c1ccc(NCC2COc3ccccc3O2)c([N+](=O)[O-])c1` (stereo not drawn), the AC50 [1] was 16.4 µM [rising, partial curve, poor fit].

In the case of `COc1ccc2c(OC)cc(=O)n(C)c2c1`, the AC50 [1] is reported as 23.1 µM [rising, single point] and the AC50 [2] is reported as 29.1 µM [falling, single point].

With `O=C(c1cnccn1)N1CCc2c([nH]c3ccccc23)C1c1cccc(Cl)c1` (stereo not drawn) the AC50 [1] was 17.8 µM [falling, single point].

For `O=C(Nc1ccc(-c2cn3ccccc3n2)cc1)c1ccco1`, the AC50 [1] was 14.6 µM [falling, single point].

With `COc1ccc(C(=O)/C=C/Nc2ccc([N+](=O)[O-])cc2C)c(OC)c1` the AC50 [1] was 20.6 µM [rising, single point].

For `COc1ccccc1C1(CCNC(C)c2cccs2)CCOC(C(C)C)C1` (stereo not drawn), the AC50 [1] was 12.6 µM [falling, partial curve].

With `CCOC(=O)C1CCCN(C(=O)C2CCN(S(=O)(=O)c3cccs3)CC2)C1` (stereo not drawn) the AC50 [1] was 1.84 µM [falling, single point].

With `Cc1ccc2nc3ccc(N4CCCC4)nn3c(=O)c2c1` the AC50 [1] was 10 µM [falling, partial curve, poor fit].

For `Cc1ccsc1C1NC(=O)c2c(sc3c2CCCC3)N1` (stereo not drawn), the AC50 [1] was 8.2 µM [falling, single point].

For `CCOc1ccc2nc(NC(=O)c3ccco3)sc2c1`, the AC50 [1] was 7.94 µM [falling, partial curve].

For `Cc1cccc(-n2c(C)cc(/C=N\NC(=O)c3cccs3)c2C)c1`, the AC50 [1] was 20.6 µM [falling, single point].

For `COC(=O)/C=C/C(=O)Nc1cccnc1`, the AC50 [1] was 15.8 µM [falling, single point].

For `CC(C)(C)c1csc(NNC(=O)c2ccc(Cl)cc2)n1`, the AC50 [1] was 31.6 µM [falling, single point].

With `Cc1ccc(C)n1-c1cc([N+](=O)[O-])ccc1-n1ccnc1` the AC50 [1] was 35.5 µM [rising, single point].

In the case of `CN1CCC(=NNC(=O)CSCc2ccccc2)CC1`, the AC50 [1] is reported as 5.62 µM [falling, single point].

For `CC(C)n1cnc2c(NCc3ccc(S(N)(=O)=O)cc3)nc(NCc3ccc(S(N)(=O)=O)cc3)nc21`, the AC50 [1] was 0.316 µM [rising, partial curve, poor fit].

In the case of `COc1cccc(OCC(O)CN2CCN(c3ccccc3)CC2)c1` (stereo not drawn), the AC50 [1] is reported as 2.51 µM [rising, partial curve, poor fit].

For `CCOC(=O)c1c(C)[nH]c(C(=O)OCC(=O)N(C)c2c(N)n(Cc3ccccc3)c(=O)[nH]c2=O)c1C`, the AC50 [1] was 18.4 µM [falling, single point].

With `COc1ccc(S(=O)(=O)N(C)C[C@H]2Oc3ccc(NC(=O)C4CC4)cc3C(=O)N([C@H](C)CO)C[C@@H]2C)cc1` the AC50 [1] was 13 µM [rising, single point].

For `CCCCC(=O)Nc1ccc(C)c(O)c1`, the AC50 [1] was 3.55 µM [rising, full curve, poor fit].

With `CCCc1nc(SCC(=O)N2CCc3ccccc3C2)c2ccccc2n1` the AC50 [1] was 10 µM [falling, partial curve].

In the case of `COC(=O)c1sccc1NC(=S)N(C)C1CCCCC1`, the AC50 [1] is reported as 35.5 µM [rising, partial curve, poor fit].

In the case of `S=C1N(c2ccccc2)CN(CCN2CCOCC2)CN1c1ccccc1`, the AC50 [1] is reported as 2 µM [rising, full curve, poor fit].

With `COc1cccc(N2CCN(C(=O)c3ccc4nc(N5CCC(C)CC5)sc4c3)CC2)c1` the AC50 [1] was 3.98 µM [falling, partial curve, poor fit].

For `Cn1cccc1C(=O)OCC(=O)c1c[nH]c2ccccc12`, the AC50 [1] was 18.4 µM [falling, single point].

In the case of `Cc1ccc(NC(=O)CSc2nnc(-c3ccc(S(=O)(=O)N4CCOCC4)cc3)n2C)cc1`, the AC50 [1] is reported as 2.31 µM [rising, full curve, poor fit].

For `CCOC(=O)c1c(C)[nH]c(C(=O)CSc2ccccc2)c1C`, the AC50 [1] was 1.78 µM [rising, full curve, poor fit].

In the case of `Cc1cc(C(=O)OCC(=O)NCc2ccco2)c(C)n1-c1ccc(F)cc1`, the AC50 [1] is reported as 3.16 µM [rising, single point] and the AC50 [2] is reported as 7.94 µM [falling, partial curve].

For `CCOC(=O)C1=C(COC(=O)c2ncc(Cl)c(Cl)c2Cl)NC(=O)NC1C` (stereo not drawn), the AC50 [1] was 29.1 µM [falling, single point].

With `O=C(OCC(=O)N1CCN(C(=O)c2ccco2)CC1)c1ccc(S(=O)(=O)N2CCCCC2)cc1` the AC50 [1] was 35.5 µM [rising, partial curve, poor fit].

With `CNc1ncc(C(=O)c2ccc(F)cc2)s1` the AC50 [1] was 20 µM [falling, single point].

With `CCc1ccc(/C=C2\SC(=S)N(CCCC(=O)Nc3ccccn3)C2=O)cc1` the AC50 [1] was 5.01 µM [falling, partial curve].

In the case of `O=C(CSc1nc(C2CCCCC2)n(-c2ccccc2)n1)NCCN1C(=O)CSC1=O`, the AC50 [1] is reported as 3.66 µM [falling, partial curve, poor fit].

For `O=C(CN1CCCCCC1=O)OCc1ncc(-c2ccccc2)o1`, the AC50 [1] was 10 µM [rising, partial curve].

In the case of `CCOC(=O)N1CCC(NC(=O)c2oc3c(F)cccc3c2C)CC1`, the AC50 [1] is reported as 6.31 µM [rising, full curve, poor fit].

With `O=C(Nc1nc2ccccc2[nH]1)c1cccc(F)c1` the AC50 [1] was 2.24 µM [falling, full curve].

In the case of `CCc1nc(NCc2ccco2)c2oc3ccccc3c2n1`, the AC50 [1] is reported as 6.31 µM [falling, full curve] and the AC50 [2] is reported as 17.8 µM [rising, partial curve, poor fit].

In the case of `COc1ccc(-c2nn(-c3ccccc3)cc2/C=N/NS(=O)(=O)c2ccccc2)cc1`, the AC50 [1] is reported as 5.62 µM [rising, partial curve].

For `O=C(CCn1c(SCC(=O)NCc2ccco2)nc2ccccc2c1=O)NCCc1ccccc1`, the AC50 [1] was 10 µM [falling, partial curve, poor fit].

For `Cn1c(=O)c2cc(S(=O)(=O)NCCC(=O)N3CC=C(c4ccccc4)CC3)ccc2n(C)c1=O`, the AC50 [1] was 22.4 µM [falling, single point].

With `CC(Oc1ccc(Cl)cc1)C(=O)Nc1ncccn1` (stereo not drawn) the AC50 [1] was 2.82 µM [rising, single point].

In the case of `COc1ccccc1NC(=O)C(=O)NCc1ccncc1`, the AC50 [1] is reported as 9.2 µM [falling, partial curve].

With `O=C(CCS(=O)(=O)c1ccccc1)Nc1nc2cc3c(cc2s1)OCO3` the AC50 [2] was 3.98 µM [rising, partial curve, poor fit].

In the case of `C=C(C)C1Cc2cc3ccc(=O)oc3cc2O1` (stereo not drawn), the AC50 [1] is reported as 13 µM [rising, partial curve] and the AC50 [2] is reported as 23.1 µM [falling, single point].

For `CN(CC(=O)Nc1nccs1)S(=O)(=O)c1ccc(F)cc1`, the AC50 [1] was 3.66 µM [falling, full curve, poor fit].

In the case of `COc1ccc(Cn2ccc(=O)c(Cc3c(Cl)cccc3Cl)c2C)cc1`, the AC50 [1] is reported as 12.6 µM [falling, partial curve, poor fit].

With `CCC1=NN2C(=N)/C(=C\c3cccn3-c3ccc(Cl)cc3)C(=O)N=C2S1` the AC50 [1] was 1.41 µM [rising, full curve, poor fit].

In the case of `Cc1ccc(C(=O)NC2CCCCC2)cc1`, the AC50 [1] is reported as 10 µM [falling, partial curve].

In the case of `Cn1c(=O)[nH]c(=O)c2c1nc(SCC(O)CO)n2Cc1ccccc1Cl` (stereo not drawn), the AC50 [1] is reported as 10 µM [rising, partial curve, poor fit].

For `CC(C)N1CCc2c(sc(NC(=O)CCS(=O)(=O)c3ccccc3)c2C#N)C1`, the AC50 [1] was 20 µM [falling, partial curve, poor fit].

For `CC(=O)Nc1ccc(S(=O)(=O)N2CCN(c3ccc(C)c(Cl)c3)CC2)cc1`, the AC50 [1] was 3.26 µM [rising, full curve, poor fit].
